# Some of the results follow.
# Protein sequences, listed by entry. Tags and fused reporters are not part of them.
# UniProt Q0JBA9, entry or part of it: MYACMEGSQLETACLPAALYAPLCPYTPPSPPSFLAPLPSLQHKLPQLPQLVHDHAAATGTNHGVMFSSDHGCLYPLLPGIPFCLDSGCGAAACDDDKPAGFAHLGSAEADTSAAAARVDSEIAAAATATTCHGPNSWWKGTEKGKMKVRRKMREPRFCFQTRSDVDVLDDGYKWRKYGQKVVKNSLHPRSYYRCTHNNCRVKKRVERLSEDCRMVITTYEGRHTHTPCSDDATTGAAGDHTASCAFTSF
# Target: OsWRKY34 (Oryza sativa, UniProt Q0JBA9 1-250)
# Assay: protein-binding microarray (RPBM); PBS, 2% BSA, 51.3 ng/ul salmon testes DNA, 50 uM zinc acetate, 200 nM TF, 25 C, 1 h; high values mean tight binding
# Conditions: protein: recombinant; tags: N-terminal polyhistidine and DsRed monomer fusion (pET32a); label: CyDye5-dUTP incorporated in the synthesized complementary strand; 3' TTTTT single-stranded linker to array surface; dsDNA, one strand shown
# Summary of the method: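 Polyhistidine-tagged DsRed fusions of transcription factors, joined at the N-terminus, were expressed in E. coli BL21-CodonPlus and isolated on Ni–NTA. They were incubated at 200 nM for 1 h at 25 °C on a custom Agilent array, double-stranded and BSA-blocked, in PBS with 2% BSA, salmon testes DNA and 50 µM zinc acetate. The binding signal is per-feature fluorescence intensity (arbitrary units) read on an Axon 4000B scanner after washing.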
row,Sequence,binding signal
1,TCGCGACCTCTCATCTATCGATCTTTGCATACATATATATCGGAGTCACCTAGTGCAG,17800 fluorescence intensity (a.u.)
2,ACTAGTTATGCACTTTACTTTCATATCTCGTCTTCCGCACCGGAGTCACCTAGTGCAG,9010 fluorescence intensity (a.u.)
3,TCACCGCCTCCGACCCGTCTGGCCAAATTCGCGCACCTCCCGGAGTCACCTAGTGCAG,9700 fluorescence intensity (a.u.)
4,CACTAATATGTGCTGTTATAAATGCTATTCCTTTGTTATTCGGAGTCACCTAGTGCAG,8740 fluorescence intensity (a.u.)
5,TTCCTTCATATTATGTGGCAACTCTCCGCGAAGTTCATTTCGGAGTCACCTAGTGCAG,8750 fluorescence intensity (a.u.)
6,ACGTTTGCGTTGAGGTGCTCTCTCTGAATTTTTCTTGTGCCGGAGTCACCTAGTGCAG,8970 fluorescence intensity (a.u.)
7,CTTATGTACTTATGTAGTACTTATGTTGTTTGTTTTTTTTCGGAGTCACCTAGTGCAG,10800 fluorescence intensity (a.u.)
8,ATCCTAAACAACATCCGGTACAATCTTTTTTTCTCAGCCCCGGAGTCACCTAGTGCAG,8130 fluorescence intensity (a.u.)
9,TGTCCATCCCATCCCATCCCAAGCGAGGCCGCGCGGCCTCCGGAGTCACCTAGTGCAG,8080 fluorescence intensity (a.u.)
10,TTCGCCTCGCCTCGCCTCGCTCGCTGTCGCTTCCTCTCTCCGGAGTCACCTAGTGCAG,8770 fluorescence intensity (a.u.)
11,GCCATCACCCGTCGTGTCGCTCTCGAGCCCCGCACGCCATCGGAGTCACCTAGTGCAG,9020 fluorescence intensity (a.u.)
12,CTCATACCCAGCGGCCCGCGGGCAGGGCTAGCTCGTTGACCGGAGTCACCTAGTGCAG,11500 fluorescence intensity (a.u.)
13,ATAACTTCGACTACATTCATATATATGCGTGACTTACTCCCGGAGTCACCTAGTGCAG,9840 fluorescence intensity (a.u.)
14,CGTGACACAATCGGACGCGGCTTGCCTGCTCCCTCGTTCTCGGAGTCACCTAGTGCAG,8700 fluorescence intensity (a.u.)
15,AGACGCGCTCTCCCTCTCGCCTCGCGGTCGCCTCGCTTTCCGGAGTCACCTAGTGCAG,9830 fluorescence intensity (a.u.)
16,ACTTATATACTTGGGGCAACTCTCCTTGATTCCCGCTTCTCGGAGTCACCTAGTGCAG,9160 fluorescence intensity (a.u.)
17,CGATCCCACCGACTCCCGGCCACCTCTGCTTCCCCGGCGACGGAGTCACCTAGTGCAG,9140 fluorescence intensity (a.u.)
18,TAGATGTTTACTAGTACTCCCCGTTGAATAGTCCCACATTCGGAGTCACCTAGTGCAG,8050 fluorescence intensity (a.u.)
19,TTTTCACCGTCGTTGGTCTGCAGGCGGTTCTCCCCTCTACCGGAGTCACCTAGTGCAG,8490 fluorescence intensity (a.u.)
20,TCCCCAGGGGAATCGGACTCTTTTTGTTTTGTTTTTTTTTCGGAGTCACCTAGTGCAG,9420 fluorescence intensity (a.u.)
21,ACTGCTGCTGCATCGGCGCCTTCACCAAGATGTCAACGGACGGAGTCACCTAGTGCAG,8350 fluorescence intensity (a.u.)

# Reprinted at random: 2 records from the list.
row,Sequence,binding signal
21,ACTGCTGCTGCATCGGCGCCTTCACCAAGATGTCAACGGACGGAGTCACCTAGTGCAG,8350 fluorescence intensity (a.u.)
6,ACGTTTGCGTTGAGGTGCTCTCTCTGAATTTTTCTTGTGCCGGAGTCACCTAGTGCAG,8970 fluorescence intensity (a.u.)

# Following part.

row,Sequence,binding signal
1,CCTCATCACTCGCTTCTCCTTGCTTACACACCATCCCATCCGGAGTCACCTAGTGCAG,8310 fluorescence intensity (a.u.)
2,GAGCTACCCTACGCCTGCTCTACTTGGCGAAGCCCAGCACCGGAGTCACCTAGTGCAG,8190 fluorescence intensity (a.u.)
3,GCCCAACTCCCATCTTCCCTTTTGTTGTTTTCCCTGGGTACGGAGTCACCTAGTGCAG,8220 fluorescence intensity (a.u.)
4,TGGTTTGTATTAATTTGTTCATTTCCGATTCAATTTTATTCGGAGTCACCTAGTGCAG,8080 fluorescence intensity (a.u.)
5,GCAGCTCAAAAAGCTAGCTACTTGTTTCTGACTTGTATCACGGAGTCACCTAGTGCAG,8560 fluorescence intensity (a.u.)
6,GAGAGCGAACGGCCGTCTGCCACGTCATTTTCGCCGCCCTCGGAGTCACCTAGTGCAG,8310 fluorescence intensity (a.u.)
7,CTTCTTCTTCTTCTTTCTTGCAATTTGAGGAGGTTTGCTCCGGAGTCACCTAGTGCAG,8420 fluorescence intensity (a.u.)
8,ATCCCTATAAGTTTTTCCTGTGTTCTGTAACCTTATATTTCGGAGTCACCTAGTGCAG,8200 fluorescence intensity (a.u.)
9,CGCGAGTGGTGGAGGAGGTGGTGGTTAATAACTGGTTAATCGGAGTCACCTAGTGCAG,8550 fluorescence intensity (a.u.)
10,TGCGCTGGCGGGCCTTGTTAGTCGTACCCCATCGGCACTCCGGAGTCACCTAGTGCAG,8770 fluorescence intensity (a.u.)
11,GGACTATTTCTGGGATAAGTTTTTTCAGGGGTCTATTTATCGGAGTCACCTAGTGCAG,9380 fluorescence intensity (a.u.)
12,TTTTATATCATCGGGCGTCCGATTTGTAGCTCTCTCCGAACGGAGTCACCTAGTGCAG,8730 fluorescence intensity (a.u.)
13,ATATTACCGACCAAGTCGTTCTTCACTGATATTAATAGTTCGGAGTCACCTAGTGCAG,8350 fluorescence intensity (a.u.)
14,ACACTCGGCGCGCTCTTGTACACCAATTCACACACACATTCGGAGTCACCTAGTGCAG,14500 fluorescence intensity (a.u.)
15,CCTCTCGTCTCGCTCGTCGCGGCCACCTCTCTTTCTCTCTCGGAGTCACCTAGTGCAG,11400 fluorescence intensity (a.u.)
16,TGTCTTTGCCCTTTTATTTCGTAGTAGGTCATAACTAAACCGGAGTCACCTAGTGCAG,8340 fluorescence intensity (a.u.)
17,TCGTATCCTAGCCCATATATTTTTACAGATTCGGGTTCAACGGAGTCACCTAGTGCAG,11000 fluorescence intensity (a.u.)
18,GTAGTGGTGGAGCTCAGGACAGATAGTGCTACGAGGGAACCGGAGTCACCTAGTGCAG,8120 fluorescence intensity (a.u.)
19,CGTTGGTCTTCCCGCCGCTCGCCATTGACCATCGCCCATGCGGAGTCACCTAGTGCAG,8070 fluorescence intensity (a.u.)
20,AAGTTTATATTGTTTAGCTATCTTACACATTATTTTTACTCGGAGTCACCTAGTGCAG,8780 fluorescence intensity (a.u.)
21,CCGGACCGGCCGCCGCTTACGATTATAATGATCATTATTTCGGAGTCACCTAGTGCAG,8530 fluorescence intensity (a.u.)
